Assay results taken from patent US20140370521A1, “IDENTIFICATION OF TWO NOVEL BIOMARKERS FOR NIEMANN-PICK DISEASE TYPE C” (The USA , as Represented by the Secretary, Department of …, priority 2011, published 2014).
What was measured is the transcript of the gene that encodes the chain shown.

Test system: Npc1-/- mouse liver
Assay: Liver gene expression microarray, Npc1-/- versus control mice (Affymetrix Mouse GeneChip 1.0 ST)
Details: negative = lower in Npc1−/−
[1] = head prints "weeks" (column between 7 weeks and 11 weeks)

| Molecule | FC (fold-change of expression between Npc1−/− and control mice) (3 weeks of age) | FC (fold-change of expression between Npc1−/− and control mice) (7 weeks of age) | FC (fold-change of expression between Npc1−/− and control mice) (11 weeks of age) | FC (fold-change of expression between Npc1−/− and control mice) [1] | FC (fold-change of expression between Npc1−/− and control mice) (5 weeks of age) | FC (fold-change of expression between Npc1−/− and control mice) (1 week of age) |
| --- | --- | --- | --- | --- | --- | --- |
| Selplg (protein, UniProt Q62170 42-397, looked up) P-selectin glycoprotein …: QVVGDDDFEDPDYTYNTDPPELLKNVTNTVAAHPELPTTVVMLERDSTSAGTSERATEKIATTDPTAPGTGGTAVGMLSTDSATQWSLTSVETVQPASTEVETSQPAPMEAETSQPAPMEAETSQPAPMEAETSQPAPMEADTSQPAPMEAETSQPAPNEAETSKPAPTEAETSKPAPTEAETTQLPRIQAVKTLFTTSAATEVPSTEPTTMETASTESNESTIFLGPSVTHLPDSGLKKGLIVTPGNSPAPTLPGSSDLIPVKQCLLIILILASLATIFLVCTVVLAVRLSRKTHMYPVRNYSPTEMICISSLLPEGGDGAPVTANGGLPKVQDLKTEPSGDRDGDDLTLHSFLP | 1.32 | 1.49 | 1.72 | 2.00 |  |  |
| Serpina12 (protein, UniProt Q7TMF5 21-413, looked up) Serpin A12: LQDRDAPDMYDSPVRVQEWRGKKDARQLARHNMEFGFKLLQRLASNSPQGNIFLSPLSISTAFSMLSLGAQNSTLEEIREGFNFKEMSNWDVHAAFHYLLHKLNQETEDTKMNLGNALFMDQKLRPQQRFLNLAKNVYDADMVLTNFQDLENTQKDINRYISQKTHSRIKNMVKSIDPGTVMILTNYIYFRGRWQYEFDPKQTKEEEFFIEKGKTVKVPMMFQRGLYDMAYDSQLSCTILEIPYRGNITATFVLPDNGKLKLLEQGLQADIFAKWKSLLSKRVVDVWVPKLRISSTYNMKKVLSRLGISKIFEENGDLTRISSHRSLKVGEAVHKAELKMDEKGMEGAAGSGAQTLPMETPRHMKLDRPFLMMIYENFMPSMVFLARIYDPSG | −1.52 | −1.53 | −1.44 | −1.39 |  |  |
| Nid1 (protein, UniProt P10493 29-1245, looked up) Nidogen-1: LNRQELFPFGPGQGDLELEAGDDVVSPSLELIGELSFYDRTDITSVYVTTNGIIAMSEPPATEYHPGTFPPSFGSVAPFLADLDTTDGLGNVYYREDLSPFIIQMAAEYVQRGFPEVSFQPTSVVVVTWESVAPYGGPSSSPAEEGKRNTFQAVLASSNSSSYAIFLYPEDGLQFFTTFSKKDESQVPAVVGFSKGLVGFLWKSNGAYNIFANDRESIENLAKSSNAGHQGVWVFEIGSPATAKGVVSADVNLDLDDDGADYEDEDYDLVTSHLGLEDVATPSPSHSPRRGYPDPHNVPRILSPGYEATERPRGVPTERTRSFQLPAERFPQHHPQVIDVDEVEETGVVFSYNTGSQQTCANNRHQCSVHAECRDYATGFCCRCVANYTGNGRQCVAEGSPQRVNGKVKGRIFVGSSQVPVVFENTDLHSYVVMNHGRSYTAISTIPETVGYSLLPLAPIGGIIGWMFAVEQDGFKNGFSITGGEFTRQAEVTFLGHPGKLVLKQQFSGIDEHGHLTISTELEGRVPQIPYGASVHIEPYTELYHYSSSVITSSSTREYTVMEPDQDGAAPSHTHIYQWRQTITFQECAHDDARPALPSTQQLSVDSVFVLYNKEERILRYALSNSIGPVRDGSPDALQNPCYIGTHGCDSNAACRPGPGTQFTCECSIGFRGDGQTCYDIDECSEQPSRCGNHAVCNNLPGTFRCECVEGYHFSDRGTCVAAEDQRPINYCETGLHNCDIPQRAQCIYMGGSSYTCSCLPGFSGDGRACRDVDECQHSRCHPDAFCYNTPGSFTCQCKPGYQGDGFRCMPGEVSKTRCQLEREHILGAAGGADAQRPTLQGMFVPQCDEYGHYVPTQCHHSTGYCWCVDRDGRELEGSRTPPGMRPPCLSTVAPPIHQGPVVPTAVIPLPPGTHLLFAQTGKIERLPLERNTMKKTEAKAFLHIPAKVIIGLAFDCVDKVVYWTDISEPSIGRASLHGGEPTTIIRQDLGSPEGIALDHLGRTIFWTDSQLDRIEVAKMDGTQRRVLFDTGLVNPRGIVTDPVRGNLYWTDWNRDNPKIETSHMDGTNRRILAQDNLGLPNGLTFDAFSSQLCWVDAGTHRAECLNPAQPGRRKVLEGLQYPFAVTSYGKNLYYTDWKTNSVIAMDLAISKEMDTFHPHKQTRLYGITIALSQCPQGHNYCSVNNGGCTHLCLPTPGSRTCRCPDNTLGVDCIERK |  | 2.15 | 2.64 | 1.96 | 1.63 |  |
| Postn (protein, UniProt Q62009 24-838, looked up) Periostin: NSYYDKVLAHSRIRGRDQGPNVCALQQILGTKKKYFSSCKNWYQGAICGKKTTVLYECCPGYMRMEGMKGCPAVMPIDHVYGTLGIVGATTTQHYSDVSKLREEIEGKGSYTYFAPSNEAWENLDSDIRRGLENNVNVELLNALHSHMVNKRMLTKDLKHGMVIPSMYNNLGLFINHYPNGVVTVNCARVIHGNQIATNGVVHVIDRVLTQIGTSIQDFLEAEDDLSSFRAAAITSDLLESLGRDGHFTLFAPTNEAFEKLPRGVLERIMGDKVASEALMKYHILNTLQCSEAITGGAVFETMEGNTIEIGCEGDSISINGIKMVNKKDIVTKNGVIHLIDEVLIPDSAKQVIELAGKQQTTFTDLVAQLGLASSLKPDGEYTLLAPVNNAFSDDTLSMDQRLLKLILQNHILKVKVGLSDLYNGQILETIGGKQLRVFVYRTAICIENSCMVRGSKQGRNGAIHIFREIIQPAEKSLHDKLRQDKRFSIFLSLLEAADLKDLLTQPGDWTLFAPTNDAFKGMTSEERELLIGDKNALQNIILYHLTPGVYIGKGFEPGVTNILKTTQGSKIYLKGVNETLLVNELKSKESDIMTTNGVIHVVDKLLYPADIPVGNDQLLELLNKLIKYIQIKFVRGSTFKEIPMTVYTTKIITKVVEPKIKVIQGSLQPIIKTEGPAMTKIQIEGDPDFRLIKEGETVTEVIHGEPVIKKYTKIIDGVPVEITEKQTREERIITGPEIKYTRISTGGGETGETLQKFLQKEVSKVTKFIEGGDGHLFEDEEIKRLLQGDTPAKKIPANKRVQGPRRRSREGRSQ |  | 1.58 | 2.04 | 1.84 | 1.44 |  |
| Tgfbi (protein, UniProt P82198 24-683, looked up) Transforming growth …: GPAKSPYQLVLQHSRLRGRQHGPNVCAVQKVIGTNKKYFTNCKQWYQRKICGKSTVISYECCPGYEKVPGEKGCPAALPLSNLYETMGVVGSTTTQLYTDRTEKLRPEMEGPGSFTIFAPSNEAWSSLPAEVLDSLVSNVNIELLNALRYHMVDRRVLTDELKHGMTLTSMYQNSNIQIHHYPNGIVTVNCARLLKADHHATNGVVHLIDKVISTITNNIQQIIEIEDTFETLRAAVAASGLNTVLEGDGQFTLLAPTNEAFEKIPAETLNRILGDPEALRDLLNNHILKSAMCAEAIVAGMSMETLGGTTLEVGCSGDKLTINGKAVISNKDILATNGVIHFIDELLIPDSAKTLLELAGESDVSTAIDILKQAGLDTHLSGKEQLTFLAPLNSVFKDGVPRIDAQMKTLLLNHMVKEQLASKYLYSGQTLDTLGGKKLRVFVYRNSLCIENSCIAAHDKRGRFGTLFTMDRMLTPPMGTVMDVLKGDNRFSMLVAAIQSAGLMEILNREGVYTVFAPTNEAFQAMPPEELNKLLANAKELTNILKYHIGDEILVSGGIGALVRLKSLQGDKLEVSSKNNVVSVNKEPVAETDIMATNGVVYAINTVLQPPANRPQERGDELADSALEIFKQASAYSRAAQRSVRLAPVYQRLLERMKH | 1.34 | 1.61 | 1.54 | 1.76 |  |  |
| Nrp1 (protein, UniProt P97333 22-923, looked up) Neuropilin-1: FRSDKCGGTIKIENPGYLTSPGYPHSYHPSEKCEWLIQAPEPYQRIMINFNPHFDLEDRDCKYDYVEVIDGENEGGRLWGKFCGKIAPSPVVSSGPFLFIKFVSDYETHGAGFSIRYEIFKRGPECSQNYTAPTGVIKSPGFPEKYPNSLECTYIIFAPKMSEIILEFESFDLEQDSNPPGGMFCRYDRLEIWDGFPEVGPHIGRYCGQKTPGRIRSSSGVLSMVFYTDSAIAKEGFSANYSVLQSSISEDFKCMEALGMESGEIHSDQITASSQYGTNWSVERSRLNYPENGWTPGEDSYKEWIQVDLGLLRFVTAVGTQGAISKETKKKYYVKTYRVDISSNGEDWISLKEGNKAIIFQGNTNPTDVVLGVFSKPLITRFVRIKPVSWETGISMRFEVYGCKITDYPCSGMLGMVSGLISDSQITASNQADRNWMPENIRLVTSRTGWALPPSPHPYTNEWLQVDLGDEKIVRGVIIQGGKHRENKVFMRKFKIAYSNNGSDWKTIMDDSKRKAKSFEGNNNYDTPELRTFSPLSTRFIRIYPERATHSGLGLRMELLGCEVEAPTAGPTTPNGNPVDECDDDQANCHSGTGDDFQLTGGTTVLATEKPTIIDSTIQSEFPTYGFNCEFGWGSHKTFCHWEHDSHAQLRWSVLTSKTGPIQDHTGDGNFIYSQADENQKGKVARLVSPVVYSQSSAHCMTFWYHMSGSHVGTLRVKLRYQKPEEYDQLVWMVVGHQGDHWKEGRVLLHKSLKLYQVIFEGEIGKGNLGGIAVDDISINNHISQEDCAKPTDLDKKNTEIKIDETGSTPGYEGEGEGDKNISRKPGNVLKTLDPILITIIAMSALGVLLGAVCGVVLYCACWHNGMSERNLSALENYNFELVDGVKLKKDKLNPQSNYSEA |  | −2.08 | −2.54 | −2.11 | −1.73 |  |
| Slpi (protein, UniProt P97430 26-131, looked up) Antileukoproteinase: GKNDAIKIGACPAKKPAQCLKLEKPQCRTDWECPGKQRCCQDACGSKCVNPVPIRKPVWRKPGRCVKTQARCMMLNPPNVCQRDGQCDGKYKCCEGICGKVCLPPM |  | 1.52 | 1.87 | 1.50 |  | 1.42 |
| Tfpi2 (protein, UniProt O35536 23-230, looked up) Tissue factor pathway …: LTSVSAQGNNLEICLLPLDAGPCQALIPKFYYDRDQQKCRRFNYGGCLGNANNFHSRDLCQQTCGSIEKVPPVCRSELKTYPCDKPNIRFFFNLNTMTCEPLRPGLCSRTINVFSEEATCKGLCEPRKHIPSFCSSPKDEGLCSANVTRFYFNSRNKTCETFTYTGCGGNENNFYYLDACHRACVKGWKKPKRWKIGDFLPRFWKHLS | −1.38 | −1.73 | −3.05 | −1.57 |  |  |
